These results are taken from publication PMC7352350.

The target in assay [1] is proMMP-9 purified from THP-1 cells (human (endogenous in THP-1)) (UniProt P14780). In words: far-Western, overlay or dot blot; slot blot, competition: pMMP-9 on the membrane, 0.29 uM Ht-SG with or without 0.87 uM His-tag peptide; detected with antibodies against SG; both purified.
The target in assay [2] is T1, HPX peptide 41 with R618 mutated to alanine (human) (UniProt P14780).
T1 sequence (peptide): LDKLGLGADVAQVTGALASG
Kind of assay: peptide or protein array; mutated FnII and HPX 20-mer peptides on cellulose, incubated with Ht-SG; antibodies against SG; both purified.

Assay [3] addresses T2, FnII peptide 22 with E274 mutated (human) (UniProt P14780).
T2 sequence (peptide): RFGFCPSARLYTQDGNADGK
The assay is described as above.

Assay [4] deals with T3, FnII peptide 35 with R307 mutated (human) (UniProt P14780).
T3 sequence (peptide): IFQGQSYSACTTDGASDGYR
The description is as above.

Assay [5] concerns the target T4, HPX peptide 69 with F665 mutated (human) (UniProt P14780).
T4 sequence (peptide): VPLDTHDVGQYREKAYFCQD
The description is as above.

Assay [6] addresses T5, FnII peptide 22 with Y277 mutated (human) (UniProt P14780).
T5 sequence (peptide): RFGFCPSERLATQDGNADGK
The assay is described as above.

The target in assay [7] is T6, HPX peptide 85 with D700 mutated (human) (UniProt P14780).
T6 sequence (peptide): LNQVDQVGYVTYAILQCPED
The assay is described as above.

Assay [8] has as its target T7, HPX peptide 69 with Y667 mutated (human) (UniProt P14780).
T7 sequence (peptide): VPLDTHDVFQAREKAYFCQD
The description is as above.

The target in assay [9] is T8, HPX peptide 85 with I701 mutated (human) (UniProt P14780).
T8 sequence (peptide): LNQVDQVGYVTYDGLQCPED
The assay is described as above.

For assay [10], the target named is T9, HPX peptide 37 with D609 mutated (human) (UniProt P14780).
T9 sequence (peptide): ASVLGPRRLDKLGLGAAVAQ
The assay is described as above.

For assay [11], the target named is T10, FnII peptide 46 (human) (UniProt P14780).
T10 sequence (peptide): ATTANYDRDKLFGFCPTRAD
Kind of assay: peptide or protein array; 20-mer walks of the MMP-9 FnII module and HPX domain on cellulose, two-residue shift; 10 uL of 1 ng/uL Ht-SG in 10 mL blocking buffer, 1-4 h, room temperature; antibodies against SG; both purified.

In assay [12] the target is T11, HPX peptide 17 (human) (UniProt P14780).
T11 sequence (peptide): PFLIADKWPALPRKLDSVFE
The description is as above.

The target in assay [13] is T12, FnII peptide 45 (human) (UniProt P14780).
T12 sequence (peptide): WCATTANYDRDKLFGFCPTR
Described as above.

The target of assay [14] is T13, FnII peptide 49 (human) (UniProt P14780).
T13 sequence (peptide): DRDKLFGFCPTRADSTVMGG
The assay is described as above.

In assay [15] the target is T14, FnII peptide 42 (human) (UniProt P14780).
T14 sequence (peptide): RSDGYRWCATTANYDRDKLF
Described as above.

Assay [16] addresses T15, FnII peptide 57 (human) (UniProt P14780).
T15 sequence (peptide): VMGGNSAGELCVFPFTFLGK
The description is as above.

For assay [17], the target named is T16, HPX peptide 78 (human) (UniProt P14780).
T16 sequence (peptide): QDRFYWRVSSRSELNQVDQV
Described as above.

Assay [18] concerns the target T17, HPX peptide 53 (human) (UniProt P14780).
T17 sequence (peptide): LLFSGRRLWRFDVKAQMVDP
The assay is described as above.

Assay [19] deals with T18, FnII peptide 71 (human) (UniProt P14780).
T18 sequence (peptide): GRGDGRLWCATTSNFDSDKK
The description is as above.

In assay [20] the target is T19, HPX peptide 36 (human) (UniProt P14780).
T19 sequence (peptide): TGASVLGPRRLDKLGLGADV
The assay is described as above.

For assay [21], the target named is T20, HPX peptide 15 (human) (UniProt P14780).
T20 sequence (peptide): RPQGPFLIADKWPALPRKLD
The description is as above.

Assay [22] concerns the target T21, FnII peptide 43 (human) (UniProt P14780).
T21 sequence (peptide): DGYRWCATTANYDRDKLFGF
The assay is described as above.

Assay [23] concerns the target T22, HPX peptide 16 (human) (UniProt P14780).
T22 sequence (peptide): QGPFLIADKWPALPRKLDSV
The description is as above.

Assay [24] deals with T23, HPX peptide 57 (human) (UniProt P14780).
T23 sequence (peptide): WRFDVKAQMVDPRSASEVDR
The description is as above.

The target in assay [25] is T24, HPX peptide 82 (human) (UniProt P14780).
T24 sequence (peptide): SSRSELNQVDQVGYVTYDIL
The assay is described as above.

Assay [26] concerns the target T25, FnII peptide 41 (human) (UniProt P14780).
T25 sequence (peptide): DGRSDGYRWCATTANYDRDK
Described as above.

Results are given in words; binding and its absence hold for the method and conditions named. Tags and fused reporters may be left off the sequences shown.

MGSSHHHHHHSSGLVPRGSHMGSHM [His-tag peptide]: in assay [1], the binding result is listed as “no binding (tested: 0.87 uM His-tag peptide)”.

B1: recombinant human His-tagged serglycin (protein, UniProt P10124 28-158)
chain: YPTRRARYQWVRCNPDSNSANCLEEKGPMFELLPGESNKIPRLRTDLFPKTRIQDLNRIFPLSEDYSGSGFGSGSGSGSGSGSGFLTEMEQDYQLVDESDAFHDNLRSLDRNLPSDSQDLGQHGLEEDFML
As to B1, the binding result in assay [2], in assay [3], in [4], in assay [5], in [6] and in assay [7] was “no binding” in each case. The binding result in assay [8], in assay [9], in assay [10], in assay [11], in assay [12] and in assay [13] was “no binding” throughout. Moreover, the binding result in assay [14], in assay [15], in assay [16], in assay [17], in assay [18] and in assay [19] was “no binding” in each case. Besides, the binding entry in [20], in [21], in assay [22], in assay [23], in assay [24] and in assay [25] was “no binding” throughout. For the same molecule, the binding result in [26] is recorded as “no binding”.
